Our source for the binding values is paper PMC4206449.

The chains behind the UniProt entries cited, without tags or fusion partners.
UniProt Q16637: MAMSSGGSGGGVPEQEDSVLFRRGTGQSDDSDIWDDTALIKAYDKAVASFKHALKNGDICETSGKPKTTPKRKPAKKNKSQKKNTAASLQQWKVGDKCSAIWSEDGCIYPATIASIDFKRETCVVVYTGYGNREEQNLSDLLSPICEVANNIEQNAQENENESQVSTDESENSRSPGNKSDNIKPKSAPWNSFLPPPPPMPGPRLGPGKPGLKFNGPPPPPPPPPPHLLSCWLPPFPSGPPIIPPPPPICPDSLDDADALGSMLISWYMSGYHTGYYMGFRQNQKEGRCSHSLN

Results are given in words; binding and its absence hold for the method and conditions named. Binding seen in cells or lysates may run through a third protein.

In this assay the target is T1, hnRNP R (endogenous, HEK293T cells) (human (endogenous in HEK293T)) (UniProt O43390).
T1 sequence: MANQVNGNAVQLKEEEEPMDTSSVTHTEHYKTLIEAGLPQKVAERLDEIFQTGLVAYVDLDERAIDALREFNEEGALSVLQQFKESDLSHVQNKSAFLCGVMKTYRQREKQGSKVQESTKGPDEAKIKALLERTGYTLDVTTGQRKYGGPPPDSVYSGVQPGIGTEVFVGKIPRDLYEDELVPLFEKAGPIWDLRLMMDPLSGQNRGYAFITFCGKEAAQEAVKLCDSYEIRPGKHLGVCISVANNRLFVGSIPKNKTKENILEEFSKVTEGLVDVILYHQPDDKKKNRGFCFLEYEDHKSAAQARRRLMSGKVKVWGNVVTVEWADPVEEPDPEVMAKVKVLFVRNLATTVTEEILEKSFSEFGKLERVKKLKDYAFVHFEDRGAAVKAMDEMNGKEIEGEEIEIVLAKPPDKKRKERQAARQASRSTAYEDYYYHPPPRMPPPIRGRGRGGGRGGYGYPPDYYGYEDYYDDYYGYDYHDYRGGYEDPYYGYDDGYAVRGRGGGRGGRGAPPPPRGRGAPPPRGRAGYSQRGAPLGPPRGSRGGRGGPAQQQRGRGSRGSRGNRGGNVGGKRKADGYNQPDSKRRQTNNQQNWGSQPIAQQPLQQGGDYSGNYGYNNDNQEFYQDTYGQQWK
Briefly: co-IP; cytosolic and soluble nuclear fractions of HEK293T cells; IP of Smn or hnRNP R, Western blot. For orientation: A western blot detects proteins with antibodies after separation by electrophoresis.

“Smn (endogenous, HEK293T cells) (from UniProt Q16637 1-294)”: the binding result is recorded as “no binding”.
